# Measured values published in article PMC8688179.
# Amino acid sequences for entries named in this document (tags omitted).
# UniProt P51617: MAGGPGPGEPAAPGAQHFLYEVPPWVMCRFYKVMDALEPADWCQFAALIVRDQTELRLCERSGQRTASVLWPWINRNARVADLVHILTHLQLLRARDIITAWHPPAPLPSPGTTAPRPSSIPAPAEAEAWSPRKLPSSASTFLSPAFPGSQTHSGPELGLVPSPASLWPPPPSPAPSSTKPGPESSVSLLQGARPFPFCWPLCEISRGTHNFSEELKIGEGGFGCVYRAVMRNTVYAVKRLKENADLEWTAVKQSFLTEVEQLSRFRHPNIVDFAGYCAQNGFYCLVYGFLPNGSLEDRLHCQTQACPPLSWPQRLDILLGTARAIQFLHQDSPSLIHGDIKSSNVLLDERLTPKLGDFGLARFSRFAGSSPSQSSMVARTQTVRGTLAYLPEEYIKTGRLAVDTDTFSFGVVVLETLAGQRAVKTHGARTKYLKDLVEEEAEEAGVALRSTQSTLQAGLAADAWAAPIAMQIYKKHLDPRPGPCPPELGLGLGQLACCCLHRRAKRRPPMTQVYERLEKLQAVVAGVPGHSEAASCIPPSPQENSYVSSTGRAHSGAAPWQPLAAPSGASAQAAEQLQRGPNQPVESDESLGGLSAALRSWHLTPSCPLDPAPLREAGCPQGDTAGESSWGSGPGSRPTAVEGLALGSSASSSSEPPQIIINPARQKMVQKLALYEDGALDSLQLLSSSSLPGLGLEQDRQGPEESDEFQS
# UniProt Q99836: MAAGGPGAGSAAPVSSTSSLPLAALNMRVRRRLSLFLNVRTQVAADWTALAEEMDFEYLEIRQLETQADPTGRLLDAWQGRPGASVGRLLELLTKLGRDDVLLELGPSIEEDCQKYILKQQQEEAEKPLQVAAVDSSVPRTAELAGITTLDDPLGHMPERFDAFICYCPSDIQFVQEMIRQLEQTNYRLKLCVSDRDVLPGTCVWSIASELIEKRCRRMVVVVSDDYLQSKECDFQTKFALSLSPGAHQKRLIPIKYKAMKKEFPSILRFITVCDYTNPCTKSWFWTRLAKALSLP
# Results are given in words; binding and its absence hold for the method and conditions named. Binding seen in cells or lysates may run through a third protein. Some binding calls cover weakened binding; strength is not graded here.
# Columns and labels:
# [1] = target: T1, SIGIRR wild type, expressed from pcDNA3-SIGIRR in HIECs (human) (UniProt Q6IA17); experiment: co-IP; HIECs transfected with pcDNA3 empty vector, pcDNA3-SIGIRR, or pcDNA3-SIGIRR plus pcDNA3-SIGIRR p168X mutant; immunoprecipitation with SIGIRR antibody, Western blot
# T1 sequence: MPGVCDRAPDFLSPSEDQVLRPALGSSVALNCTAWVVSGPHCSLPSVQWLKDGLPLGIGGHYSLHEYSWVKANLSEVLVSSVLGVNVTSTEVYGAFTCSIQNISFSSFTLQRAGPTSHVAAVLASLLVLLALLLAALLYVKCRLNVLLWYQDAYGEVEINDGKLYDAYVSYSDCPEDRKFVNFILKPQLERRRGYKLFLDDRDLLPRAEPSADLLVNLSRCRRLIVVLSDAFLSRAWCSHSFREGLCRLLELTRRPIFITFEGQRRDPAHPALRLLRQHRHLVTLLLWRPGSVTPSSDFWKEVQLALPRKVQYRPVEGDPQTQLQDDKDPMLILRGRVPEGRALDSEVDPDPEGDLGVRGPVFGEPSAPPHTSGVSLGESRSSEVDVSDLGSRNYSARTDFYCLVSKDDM
# [2] = target: T2, single immunoglobulin interleukin-1-related receptor (SIGIRR), endogenous in HIECs (human (endogenous in HIEC-6)) (UniProt Q6IA17); experiment: co-IP; HIEC lysates immunoprecipitated by SIGIRR antibody, immunoblot of the complexes; endogenous proteins, at baseline without exogenous TLR ligand; normal IgG as control
# T2 sequence: T1 sequence
binding [1],binding [2],Substance
binds,binds,"interleukin-1-related-associated kinase 1 (IRAK1), endogenous in HIECs (from UniProt P51617 1-712) (enzyme)"
binds,binds,"myeloid differentiation primary response 88 (MYD88), endogenous in HIECs (from UniProt Q99836 1-296)"
